These are yes or no findings as the source states them, for the method shown. Binding seen in cells or lysates may run through a third protein. Some results given as binding are weak or reduced against the parent protein; the word gives no strength.
Legend:
[1] = target: HA-tagged DSG2 (desmoglein-2) (UniProt Q14126); assay: co-IP; HEK293T stably expressing HA-tagged DSG2 (C2C), transiently transfected with untagged CD109; lysate in DPBS + 1 % Triton X-100; HA-tag (6E2) antibody and Dynabeads Protein G, 4 °C; western blot for CD109
[2] = target: N-terminally His-tagged CD109 (UniProt Q6YHK3); assay: co-IP; lysate (DPBS + 1 % Triton X-100) of HEK293T stably expressing N-terminally His-tagged CD109 (A1); precipitated with Ni-NTA agarose; western blot for endogenous DSG2 and CD109

Sequences of proteins named here, by UniProt entry; tags and fusion partners are left off. Residues count along the entry.
UniProt Q14126, residues 50-1118: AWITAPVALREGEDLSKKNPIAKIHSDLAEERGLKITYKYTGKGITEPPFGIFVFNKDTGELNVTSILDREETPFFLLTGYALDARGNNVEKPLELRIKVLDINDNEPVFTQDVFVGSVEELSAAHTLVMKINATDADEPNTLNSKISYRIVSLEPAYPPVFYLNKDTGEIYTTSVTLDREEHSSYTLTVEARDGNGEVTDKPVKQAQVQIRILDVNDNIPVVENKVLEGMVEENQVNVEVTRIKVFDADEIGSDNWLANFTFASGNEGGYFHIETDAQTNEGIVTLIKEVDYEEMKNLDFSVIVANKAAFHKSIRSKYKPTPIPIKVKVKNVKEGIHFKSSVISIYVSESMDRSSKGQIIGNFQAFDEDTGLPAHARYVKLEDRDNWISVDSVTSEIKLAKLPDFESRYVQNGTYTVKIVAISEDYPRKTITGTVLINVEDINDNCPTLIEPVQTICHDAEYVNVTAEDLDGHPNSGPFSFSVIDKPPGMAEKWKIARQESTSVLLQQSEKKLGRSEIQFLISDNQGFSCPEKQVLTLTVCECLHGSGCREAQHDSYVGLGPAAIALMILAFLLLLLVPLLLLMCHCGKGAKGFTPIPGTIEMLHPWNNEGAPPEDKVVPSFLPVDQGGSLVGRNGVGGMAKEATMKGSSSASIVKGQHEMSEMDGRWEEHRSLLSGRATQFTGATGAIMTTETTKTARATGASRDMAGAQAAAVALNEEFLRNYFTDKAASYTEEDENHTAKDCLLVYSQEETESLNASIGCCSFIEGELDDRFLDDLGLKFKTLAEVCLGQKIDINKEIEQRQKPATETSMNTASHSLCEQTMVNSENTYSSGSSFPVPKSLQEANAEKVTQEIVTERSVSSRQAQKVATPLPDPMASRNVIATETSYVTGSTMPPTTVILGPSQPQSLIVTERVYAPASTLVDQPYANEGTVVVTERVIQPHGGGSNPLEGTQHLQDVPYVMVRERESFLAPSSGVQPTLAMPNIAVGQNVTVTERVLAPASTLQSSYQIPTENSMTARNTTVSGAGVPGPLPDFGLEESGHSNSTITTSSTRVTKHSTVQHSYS
UniProt Q6YHK3, residues 22-1420: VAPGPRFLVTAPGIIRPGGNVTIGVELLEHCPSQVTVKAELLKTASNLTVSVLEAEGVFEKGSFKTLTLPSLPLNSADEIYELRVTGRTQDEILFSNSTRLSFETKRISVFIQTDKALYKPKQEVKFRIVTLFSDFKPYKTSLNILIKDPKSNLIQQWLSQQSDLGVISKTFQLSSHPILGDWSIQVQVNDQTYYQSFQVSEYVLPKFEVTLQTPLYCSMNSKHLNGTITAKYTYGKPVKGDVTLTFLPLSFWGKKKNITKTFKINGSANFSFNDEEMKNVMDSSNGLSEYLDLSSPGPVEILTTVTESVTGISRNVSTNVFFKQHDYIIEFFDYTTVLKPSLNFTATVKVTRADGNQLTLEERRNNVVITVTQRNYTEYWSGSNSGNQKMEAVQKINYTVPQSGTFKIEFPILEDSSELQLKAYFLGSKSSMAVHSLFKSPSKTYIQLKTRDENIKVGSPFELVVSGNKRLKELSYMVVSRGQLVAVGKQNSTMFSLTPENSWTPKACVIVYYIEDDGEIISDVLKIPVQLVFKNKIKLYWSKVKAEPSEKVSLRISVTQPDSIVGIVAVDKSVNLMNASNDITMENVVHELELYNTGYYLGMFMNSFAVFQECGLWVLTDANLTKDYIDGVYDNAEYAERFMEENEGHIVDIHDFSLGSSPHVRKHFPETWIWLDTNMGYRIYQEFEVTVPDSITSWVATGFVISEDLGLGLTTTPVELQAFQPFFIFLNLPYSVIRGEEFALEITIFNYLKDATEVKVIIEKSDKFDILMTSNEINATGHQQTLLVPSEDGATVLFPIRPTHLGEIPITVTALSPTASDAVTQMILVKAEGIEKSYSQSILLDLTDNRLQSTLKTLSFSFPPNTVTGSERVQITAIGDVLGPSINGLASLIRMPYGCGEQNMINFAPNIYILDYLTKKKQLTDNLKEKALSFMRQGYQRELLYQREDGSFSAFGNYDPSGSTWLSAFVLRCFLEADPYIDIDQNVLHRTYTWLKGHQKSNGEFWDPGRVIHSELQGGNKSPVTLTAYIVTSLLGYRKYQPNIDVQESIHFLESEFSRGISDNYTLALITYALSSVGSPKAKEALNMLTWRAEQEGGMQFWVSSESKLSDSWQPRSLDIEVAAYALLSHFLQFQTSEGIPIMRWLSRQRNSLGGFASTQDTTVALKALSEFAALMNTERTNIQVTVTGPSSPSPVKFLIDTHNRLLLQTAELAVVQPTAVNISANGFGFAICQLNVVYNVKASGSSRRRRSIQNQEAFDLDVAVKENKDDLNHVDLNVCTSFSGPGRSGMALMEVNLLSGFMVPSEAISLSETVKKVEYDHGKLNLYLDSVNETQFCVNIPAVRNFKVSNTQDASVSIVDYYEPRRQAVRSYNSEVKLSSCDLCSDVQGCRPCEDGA

Substance: untagged CD109 (from UniProt Q6YHK3 22-1420)
- binding [1]: binds

Substance: desmoglein-2 (DSG2), endogenous (from UniProt Q14126 50-1118)
- binding [2]: binds

Reference: paper PMC10984026
